# PubChem BioAssay AID588590 (National Center for Advancing Translational Sciences (NCATS), 2011)
# Protein sequences, listed by entry. Tags and fused reporters are not part of them. Lines headed by an entry give the natural chain unless they say otherwise; changes in a name come on top.
# UniProt Q9UNA4: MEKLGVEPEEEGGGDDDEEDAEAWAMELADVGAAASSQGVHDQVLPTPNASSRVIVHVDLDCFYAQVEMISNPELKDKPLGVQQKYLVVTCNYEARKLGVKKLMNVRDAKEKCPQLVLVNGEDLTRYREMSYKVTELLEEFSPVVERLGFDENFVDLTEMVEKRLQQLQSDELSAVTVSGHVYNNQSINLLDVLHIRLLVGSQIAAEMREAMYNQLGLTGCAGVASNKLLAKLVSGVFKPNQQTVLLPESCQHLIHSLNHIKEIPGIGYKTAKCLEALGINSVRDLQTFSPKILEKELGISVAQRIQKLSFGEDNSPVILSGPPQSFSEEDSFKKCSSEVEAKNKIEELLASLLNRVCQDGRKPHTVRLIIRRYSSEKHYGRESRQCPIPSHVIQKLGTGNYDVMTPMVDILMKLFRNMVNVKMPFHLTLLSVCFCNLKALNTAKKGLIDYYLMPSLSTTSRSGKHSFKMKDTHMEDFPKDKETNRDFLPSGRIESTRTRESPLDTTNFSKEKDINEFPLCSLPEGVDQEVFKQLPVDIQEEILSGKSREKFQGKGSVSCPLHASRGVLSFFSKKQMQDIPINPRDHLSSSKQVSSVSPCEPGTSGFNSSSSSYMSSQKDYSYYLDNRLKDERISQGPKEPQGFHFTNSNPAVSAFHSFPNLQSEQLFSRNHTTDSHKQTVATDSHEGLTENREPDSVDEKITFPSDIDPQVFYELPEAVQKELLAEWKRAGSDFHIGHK
# In all, about 390,000 compounds went through this assay and about 4,000 (1%) were called active. The inconclusive results got no clear call from the source; some entries with a clear call stand among them for comparison. The call rests on the fitted dose curve; in most records, active means well fitted inhibition curve with a large enough effect; inconclusive means small, poorly fitted or top-dose-only effect, or another doubt; inactive means no such curve, though single readings can be large or run the other way. A potency beside an inconclusive call is a rough fit, not a confirmed value.
# Biological target: DNA polymerase iota (Homo sapiens) (UniProt Q9UNA4)
# Assay: qHTS for Inhibitors of Polymerase Iota
# Settings: Pol iota fluorescent replication assay, 10 min; series mostly up to 115 µM
# Summary of the method: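 Fluorescent replication assay read twice, at 0 min and 10 min after adding 50 nM (final) substrate. Enzyme (10 nM) and compounds were first incubated 15 min at room temperature; enzyme-free buffer wells were negative controls.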
# Potency means the concentration at half of the fitted maximal effect.
row,Compound,Potency
1,O=c1oc2cc(O)ccc2cc1S(=O)(=O)c1ccccc1,"inconclusive: 15.8 µM [inhibitor, full curve, poor fit]"
2,N=c1c(C(=O)NCc2ccc3c(c2)OCO3)cc2c(=O)n3ccccc3nc2n1Cc1cccnc1,active: 39.8 µM
3,CC(C(=O)NCCN1C(=O)S/C(=C\c2cccnc2)C1=O)N1C(=O)c2ccccc2C1=O (configuration not stated),"inconclusive: 39.8 µM [inhibitor, single point]"
4,Cc1[nH]n(C(N)=S)c(=O)c1N=Nc1ccc(Br)cc1,"inconclusive: 56.2 µM [inhibitor, single point]"
5,COc1ccc(-c2c(C)oc3c(CN4CCN(CCO)CC4)c(O)ccc3c2=O)cc1OC,"inconclusive: 7.94 µM [inhibitor, partial curve, poor fit]"
6,O=C(O)C1C(c2ccccc2)C(C(=O)OCc2ccco2)C1c1ccccc1 (configuration not stated),"inconclusive: 15.8 µM [inhibitor, full curve, poor fit]"
7,CN(C)CCCN1C(=O)c2cccc3c([N+](=O)[O-])ccc(c23)C1=O,"inconclusive: 11.2 µM [inhibitor, partial curve, poor fit]"
8,Clc1ccc(C=NN2CCCCCC2)cc1Cl,"inconclusive: 89.1 µM [inhibitor, partial curve, poor fit]"
9,O=C(Cn1nc(Cc2ccncc2)c2ccccc2c1=O)N1CCc2ccccc2C1,"inconclusive: 25.1 µM [inhibitor, partial curve, poor fit]"
10,CCCN(CCO)Cc1ccc2ccccc2c1,"inconclusive: 112 µM [inhibitor, partial curve, poor fit]"
11,CCOC(=O)c1c(NC(=O)C2c3ccccc3Oc3ccccc32)sc2c1CCC(CC)C2 (configuration not stated),"inconclusive: 89.1 µM [inhibitor, partial curve]"
12,COc1ccc2c(c1)c1ncn(CCN3CCCCC3)c(=O)c1n2C,inactive
13,Cc1ccc(CNC(=O)c2ccc(N3CCC4(CC3)CC(c3ccccc3)=NO4)c(NC(=O)c3ccc(Cl)c([N+](=O)[O-])c3)c2)cc1,inactive
14,CCNc1nc(NCC)n2c(SCC(=O)Nc3c(C)cccc3C)nnc2n1,inactive
15,O=C(c1ccc(F)cc1)C1CCN(CCn2c(=O)[nH]c3ccccc3c2=O)CC1,"inconclusive: 63.1 µM [inhibitor, partial curve, poor fit]"
16,O=C(Nc1nc2c(F)cccc2s1)c1ccc(S(=O)(=O)N2CCCc3ccccc32)cc1,inactive
17,CC1(C)CN(c2ccc(N3CC(C)(C)C3=O)cc2)C1=O,"inconclusive: 89.1 µM [inhibitor, single point]"
18,O=C(NC(=S)Nc1ccccc1)c1csnn1,"inconclusive: 12.6 µM [inhibitor, partial curve]"
19,COc1ccc(Cl)cc1C(=O)Nc1nc2ccccc2[nH]1,active: 79.4 µM
20,COc1ccc(CSCC(=O)N/N=C/c2ccc(OCC(=O)N3CCCCC3)cc2)cc1,"inconclusive: 79.4 µM [inhibitor, single point]"
21,CCCCN(C(=O)C1CCCC1)C1CCS(=O)(=O)C1 (configuration not stated),inactive

row,Compound,Potency
1,COc1ccc(N2CCN(c3nc4ccccc4nc3NS(=O)(=O)c3ccccc3)CC2)cc1,"inconclusive: 112 µM [inhibitor, partial curve, poor fit]"
2,CCOC(=O)Nc1ccc(C(=O)Oc2ccccc2)c(O)c1,"inconclusive: 79.4 µM [inhibitor, partial curve, poor fit]"
3,Cn1c(/C=C(\C#N)C(N)=S)ccc1-c1ccc(Br)cc1,"inconclusive: 79.4 µM [inhibitor, single point]"
4,COc1ccc(NC(=S)Nc2ncccc2C)c(OC)c1,"inconclusive: 79.4 µM [inhibitor, single point]"
5,CC1Sc2ccc(S(=O)(=O)CCC(=O)NCc3ccccc3)cc2NC1=O (configuration not stated),"inconclusive: 79.4 µM [inhibitor, partial curve, poor fit]"
6,CC(=O)N1CCCc2cc(S(=O)(=O)N3CCCC(C(=O)NC(C)C)C3)ccc21 (configuration not stated),inactive
7,Cc1ccc(OCC(=O)Nc2c(C(=O)c3ccc(Cl)cc3)oc3ccccc23)cc1C,inactive
8,CCOc1ccccc1CN1CCN(S(C)(=O)=O)CC1,"inconclusive: 89.1 µM [inhibitor, single point]"
9,COCCCNC(=O)c1c[nH]c2ccc(S(=O)(=O)N(C)c3ccccc3C)cc2c1=O,inactive
10,C/C(=N\NC(=O)c1ccc(C(=O)N/N=C(\C)c2ccco2)o1)c1ccco1,"inconclusive: 17.8 µM [inhibitor, full curve, poor fit]"
11,COc1ccc(-n2nc(C(=O)Nc3ccc(C(C)=O)cc3)nc2-c2ccccc2)cc1,inactive
12,Cc1cc(C(=O)CSc2nnc(-c3ccccc3)n2-c2ccccc2)c(C)n1-c1ncn[nH]1,"inconclusive: 25.1 µM [inhibitor, full curve, poor fit]"
13,O=C(CSc1cccc(C(F)(F)F)c1)NC(=O)NCc1ccco1,"inconclusive: 5.01 µM [inhibitor, full curve, poor fit]"
14,Cc1ccc2oc(=O)n(CC(=O)OC(C)C)c2c1,inactive
15,Cc1cc(=O)oc(C)c1C(=O)Nc1c(C)n(C)n(-c2ccccc2)c1=O,"inconclusive: 39.8 µM [inhibitor, single point]"
16,Cc1ccc(C(C)NC(=O)Cc2cccs2)cc1C (configuration not stated),"inconclusive: 17.8 µM [inhibitor, partial curve, poor fit]"
17,Cc1ccc(NC(=O)Cn2nnc(C(=O)NCc3cccs3)c2N)cc1,"inconclusive: 79.4 µM [inhibitor, single point]"
18,CCOc1ccccc1N1CCN(C(=O)c2cc(-c3cccnc3)nc3c(Cl)cccc23)CC1,inactive
19,CCc1ccccc1-n1cnc2cc(C(=O)NC3CCCCCC3)ccc21,inactive
20,N#C/C(=C/c1ccc(N2CCCCCC2)o1)c1cccc(F)c1,"inconclusive: 12.6 µM [inhibitor, partial curve, poor fit]"
21,CC(C)(C)c1ccc(OCCC(=O)OCC(=O)Nc2cccnc2Cl)cc1,"inconclusive: 31.6 µM [inhibitor, partial curve, poor fit]"

# In a second layout: results already given.
row | Compound | Potency
12 | Cc1cc(C(=O)CSc2nnc(-c3ccccc3)n2-c2ccccc2)c(C)n1-c1ncn[nH]1 | inconclusive: 25.1 µM [inhibitor, full curve, poor fit]
13 | O=C(CSc1cccc(C(F)(F)F)c1)NC(=O)NCc1ccco1 | inconclusive: 5.01 µM [inhibitor, full curve, poor fit]
